Results deposited as PubChem BioAssay AID686943 (Drosophila RNAi Screening Center, 2013).

- Aim: 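Search across the genome for regulators of signalling from receptor tyrosine kinase to ERK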 (primary screen)
- System: Drosophila S2R+ haemocyte-like cells expressing YFP-tagged ERK (Rolled)
- Reagents: long dsRNA against Drosophila genes
- Challenge: insulin stimulation versus unstimulated cells; dose and duration not given
- Read-out: 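Antibody staining for doubly phosphorylated ERK divided by ERK-YFP signal, as plate z-scores, in insulin-treated and untreated cells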
- Reading the numbers: replicate 1, z-score of dpERK with insulin and replicate 2, z-score of dpERK with insulin: higher = more active ERK per ERK-YFP after insulin; replicate 1, z-score of dpERK under basal conditions: higher = more basal active ERK per ERK-YFP; replicate 1, z-score of ERK-YFP with insulin: higher = more YFP-tagged ERK signal
The deposit covers about 23,000 reagents; this is an unselected part of those that have a named target and a result. 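Extra replicates exist only for a retested subset of genes; insulin dose and duration not given; both raised and lowered dpERK matter.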 A plus sign joins genes that one reagent is predicted to hit. Reagent sequences are not shown. Not stated in the record: the amount of reagent, the time to read-out.

no.	gene	dsRNA	replicate 1, z-score of dpERK with insulin	replicate 2, z-score of dpERK with insulin	replicate 1, z-score of dpERK under basal conditions	replicate 1, z-score of ERK-YFP with insulin
1	Vha14-1 (GeneID 36731)	DRSC07571	0.38	-0.12	0.19	-0.67
2	Pss (GeneID 40281)	DRSC11757	0.9	0.23	0.22	-0.22
3	noc (GeneID 34847)	DRSC03580	0.13	-1.11	-0.41	0.33
4	Sodh2 (GeneID 41313)	DRSC16865	-0.02	0.03	-0.62	0.09
5	Spase25 (GeneID 32095)	DRSC19776	0.51	0.38	-0.7	0.07
6	nkd (GeneID 44843)	DRSC11376	0.41	-0.51	0.7	-0.24
7	Not11 (GeneID 37839)	DRSC04204	1.05	0.24	0.22	-0.33
8	pnr (GeneID 44849)	DRSC17027	0.6	-0.03	-0.32	0.37
9	CG15577 (GeneID 50378)	DRSC18065	-0.38	-0.33	0.89	0.38
10	CG14823 (GeneID 38772)	DRSC10194	0.22	0.94	-0.34	-0.18
11	PpY-55A (GeneID 48532)	DRSC07513	-1.36	-0.88	0.04	0.12
12	MED20 (GeneID 43952)	DRSC03463	0.46	-0.13	-0.73	-0.84
13	imd (GeneID 44339)	DRSC05928	-0.39	-0.42	0.62	-0.75
14	CG34462 (GeneID 5740319)	DRSC10768	0.83	0.71	0.48	-0.55
15	CG7326 (GeneID 32882)	DRSC20037	0.67	0.13	-0.72	-0.14
16	Nna1 (GeneID 32329)	DRSC18993	0.56	0.1	0.72	0.08
17	Nna1 (GeneID 32329)	DRSC19404	1.06	-0.13	-0.71	0.56
18	hppy (GeneID 37203)	DRSC07014	1.01	0.61	0.51	-0.49
19	hppy (GeneID 37203)	DRSC07015	0.07	-0.06	2.06	0.17
20	hppy (GeneID 37203)	DRSC07016	-0.39	0.44	0.45	0.36
21	CG42553 (GeneID 38094)	DRSC08356	0.25	-0.49	-0.11	0.2
22	rad50 (GeneID 37564)	DRSC04523	0.38	0.26	-0.16	0.16
23	UK114 (GeneID 34897)	DRSC01973	-0.59	0.64	-0.07	0.33
24	NimC2 (GeneID 34818)	DRSC01881	-0.59	-0.39	-0.13	0.01
25	Cyp6a21 (GeneID 36665)	DRSC07381	-0.61	-1.12	-0.03	0.53
26	Vps15 (GeneID 41096)	DRSC16553	0.32	0.17	-0.31	-0.26
27	CG31562 (retired record) (GeneID 40753)	DRSC12273	-0.56	-0.97	0.46	1.61
28	CG31562 (retired record) (GeneID 40753)	DRSC12274	-0.13	0.31	0.81	1.12
29	AdipoR (GeneID 42656)	DRSC15767	0.42	0.06	0.02	0.67
30	CG12279 (GeneID 41570)	DRSC14495	-1.07	0.05	-0.64	0.19
31	CG9903 (GeneID 32621)	DRSC20213	0.31	0.2	-0.79	-0.79
32	Cyp6a8 (GeneID 36666)	DRSC07384	0.61	0.27	0.02	0.38
33	Acbp1 (GeneID 34111)	DRSC03093	0.8	0.03	0.5	0.06
34	CG9360 (GeneID 32128)	DRSC20180	0.24	-0.06	0.22	0.15
35	CG9875 (GeneID 37698)	DRSC04585	0.04	-0.52	1.42	0.04
36	wuc (GeneID 36401)	DRSC06152	-0.47	-0.15	0.41	0.07
37	CG7702 (GeneID 42242)	DRSC16293	0.8	0.15	0.62	0.56
38	CG3808 (GeneID 40074)	DRSC10377	-0.49	-1.09	0.63	0.75
39	Tfb4 (GeneID 33294)	DRSC00675	-0.25	-1.71	0.74	0.96
40	Cyp9h1 (GeneID 36412)	DRSC07391	0.11	0.87	0.62	-0.88
41	CG43327 + CG43328	DRSC05640	0.15	0.45	-0.14	-0.16
42	SNRPG (GeneID 32636)	DRSC20207	-0.46	0.67	-1.76	-2.93
43	CG14710 (GeneID 41393)	DRSC14933	0.06	-0.04	-0.23	1.83
44	CG3735 (GeneID 37803)	DRSC04411	-0.56	0.13	0.12	0.75
45	Tengl3 (GeneID 33404)	DRSC22288	0.32	-0.08	0.01	-0.22
46	rig (GeneID 37335)	DRSC06053	-0.96	-0.47	-0.29	1.38
47	rig (GeneID 37335)	DRSC06400	0.14	0.07	-0.36	-0.06
48	CG42663 (GeneID 36403)	DRSC06158	-2.46	-3.22	0.04	2.06
49	CG42663 (GeneID 36403)	DRSC06404	1.55	-1.19	0.57	-0.42
50	mRpL55 (GeneID 42290)	DRSC14764	-1.15	-0.15	0.3	2.82
51	SMC1 (GeneID 42853)	DRSC16846	2.66	-0.14	-0.54	0.28
52	rictor (GeneID 32919)	DRSC20071	0.72	1.16	0.1	-0.18
53	Pebp1 (GeneID 42644)	DRSC15354	-0.3	0	-0.7	-0.08
54	CG14543 (GeneID 43167)	DRSC14887	-1.89	-0.1	-0.59	-0.57
55	shams (GeneID 43008)	DRSC16590	-0.49	0.19	-0.07	0.38
56	Myo95E (GeneID 2768680)	DRSC15821	-0.35	-0.04	-0.48	-0.18
57	CG6788 + CR32496	DRSC22043	-0.46	-0.14	0.36	0.02
